Source: US20200362350
The exact form of at least one protein or probe is not confirmed.

Protein sequences, listed by entry. Tags and fused reporters are not part of them. Lines headed by an entry give the natural chain unless they say otherwise; changes in a name come on top.
UniProt Q8K3Y3: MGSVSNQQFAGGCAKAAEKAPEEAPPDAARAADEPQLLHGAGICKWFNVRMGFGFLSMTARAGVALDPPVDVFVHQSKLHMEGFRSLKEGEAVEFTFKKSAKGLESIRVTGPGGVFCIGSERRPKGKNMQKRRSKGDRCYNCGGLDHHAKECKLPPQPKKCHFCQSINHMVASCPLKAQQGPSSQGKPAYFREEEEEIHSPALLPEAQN

Experiments:
[1] = biological target: Lin28a (16-184) with 9-residue linker deletion 9-residue internal deletion in linker (Mus musculus) (UniProt Q8K3Y3); assay: EMSA; details: deletion of up to 9 linker residues supports binding; purified recombinant protein; protein details: His6 removed by TEV; label: 32P
[2] = biological target: Lin28a (35-187) with 9-residue linker deletion 9-residue internal deletion in linker (Mus musculus) (UniProt Q8K3Y3); assay: EMSA; details: fragment of pre-let-7f-1; linker deletion tolerated; purified recombinant protein; protein details: His6 removed by TEV; label: 32P

Sequence	binding result [1]	binding result [2]
UUAGGGCAGAGAUUUUGCCCACAAGGAGUU [preE-let-7d full]	binds	–
GUGGGGUAGUGAUUUUACCCUGUUUAGGAGAU [preE-let-7f-1 (fragment)]	–	binds
